Earlier results in patent US10912471B2, “System and method for automatic perfusion measurement” (priority 2018, dated 2021).

Conditions: administered intravenously; depending on liver performance; eliminated by the liver to bile juice

SMILES: CC1(C)C(/C=C/C=C/C=C/C=C2\N(CCCCS(=O)(=O)O)c3ccc4ccccc4c3C2(C)C)=[N+](CCCCS(=O)(=O)[O-])c2ccc3ccccc3c21 [ICG, Indocyanine green]
- half life of elimination from the body: 3 to 4 min
